Literature values as cited in patent publication US20100255598A1, “Medication Adherence Monitoring System” (priority 2007, published 2010).

Details: endogenous metabolism; cited from earlier work

| Compound | mean concentrations in human breath |
| --- | --- |
| CC=O [acetaldehyde] | 2-5 ppb |
| CC(C)=O [acetone] | 293-870 ppb |
| CCO [Ethanol, ethanol] | 27-153 ppb |
| C=CC(=C)C [isoprene] | 55-121 ppb |
| N [ammonia] | 422-2389 ppb |

Details: humans; cited from earlier work

| Compound | endogenous blood plasma concentration [µM] |
| --- | --- |
| CO [Methanol, methanol] | 12.5 to 25 |
| CCO [Ethanol, ethanol] | 4 to 33 |
